Some entries share one result that the patent states for a list of compounds.
Key:
Botrytis cinerea = assay: Test Example B: Gray mold on tomato; details: 250 ppm sprayed (2.5 ml/pot) on tomato (Oogata Fukuju); disease development 2 to 3 days after inoculation
[1] = system: Blumeria graminis f. sp. hordei; assay: Test Example D: Powdery mildew on barley; details: 250 ppm sprayed (2.5 ml/pot) on barley (Akashinriki); disease development 6 to 10 days after inoculation
Puccinia recondita = assay: Test Example E: Brown rust on wheat; format: in vivo; details: 250 ppm sprayed (2.5 ml/pot) on wheat (Norin 61); disease development 7 to 10 days after inoculation
Plasmopara viticola = assay: Test Example G: Downy mildew on vine; details: 250 ppm sprayed (2.5 ml/pot) on grape (Neomuscat); disease development 7 to 10 days after inoculation
[2] = system: Colletotrichum orbiculare; assay: Test Example H: Anthracnose on cucumber; details: 250 ppm sprayed (2.5 ml/pot) on cucumber (Sagami Hanjiro); disease development 6 to 10 days after inoculation
Alternaia brassicicola = assay: Test Example C: Alternaria sooty spot on cabbage; details: 250 ppm sprayed (2.5 ml/pot) on cabbage (Shikidori); disease development 2 to 3 days after inoculation

Measured: control value

Cc1ccc(-c2c(-c3ccccc3Cl)ccc(=O)n2C)cc1 [compound 146]
> 50%: Botrytis cinerea | [1] | Puccinia recondita | Plasmopara viticola

Cn1c(-c2cc(F)c(F)c(F)c2)c(-c2cc(F)ccc2Cl)cc(Br)c1=O [compound 168]
> 50%: Botrytis cinerea | [1] | Puccinia recondita | Plasmopara viticola

Cc1ccc(C2=C(c3ccc(F)cc3)N(C)C(=O)CC2)c(Cl)c1 [compound 393]
> 50%: [1] | Puccinia recondita | Plasmopara viticola | [2]

O=c1c(I)cc(-c2ccccc2Cl)c(-c2ccccc2)n1CC(F)F [compound 525]
> 50%: all assays above
